According to PubChem BioAssay AID1508600 (Functional Genomics Laboratory (NCATS/FGL), 2020):
Out of some 53,000 sequences screened, about 3,700 (7%) were called active.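 How the source made its calls: active means gene knockdowns whose robust z-score for IL-1 alpha signal is at least 2 or at most -2, so actives lie on both sides; inactive means the rest.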 The list shows a part of the results.

Assay: Components of the Cytosolic LPS Sensing Pathway: Gene Identification via Genome-wide siRNA Screen;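 further: robust z of the log signal after scaling to non-targeting control siRNA wells of the plate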
Details: RAW264.7 macrophages, IL-1a HTRF, actives lie on both sides, screened at 100 nM (by protocol), cells primed 5 h with Pam3CSK4 first
How it was run: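 Cells (RAW264.7, 1×10^4 per well) were transfected with siRNA at 100 nM and cultured 48h at 37 degrees C. Pam3CSK4 was added for 5 hours; LipidA transfection followed for 24 hour. IL-1a was then measured by HTRF.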
With GGGCCAUGACAGAAUUCCATT against Ahsp the z-score was inactive: -1.47.
With CGGAAACAAUGCAAUGGCATT against Bcl11a the z-score was inactive: -0.533.
With GGAAAAUGGAAUUUGGUCCTT against Il12b the z-score was inactive: 0.881.
With GCACACUCUGUUAUAAAAUTT against Osbpl2 the z-score was inactive: -0.753.
With CUACUAUAGUGUAAUGGUGTT against Psg18 the z-score was inactive: 0.307.
In the case of CGACUCAAUUUCUGUGGCCTT against Olfr525, the z-score is reported as inactive: -1.96.
For GGUGUUCAAAAGUGGACUUTT against Pnck, the z-score was inactive: -0.771.
With GCCUAUACAACCCUAUUGUTT against Kazn the z-score was inactive: -0.879.
With CGCCUUUAGUAAGGAUCACTT against Tube1 the z-score was inactive: -0.76.
With GCUCACUAACUUUUACAAGTT against Fam166c the z-score was inactive: 0.419.
In the case of GCAAUCUCCAACAAACUCUTT against Gemin7, the z-score is reported as inactive: 1.23.
For GGGAAGUGCCUCCUAUACUTT against Slc25a39, the z-score was inactive: -0.405.
For GCUGACUUCACAUUUGGCUTT against Mms19, the z-score was inactive: -0.24.
In the case of GGCAACUGGAAAUCUGGGATT against Adar, the z-score is reported as inactive: -0.153.
With GGAGGUGUUGGCUCACAACTT against Fam234b the z-score was inactive: -0.527.
For GAAGAUGCCACGCUAAAAATT against Adam34, the z-score was active: 2.73.
For GCAGUGCAGUGGAUCAAAUTT against Erap1, the z-score was inactive: 1.16.
With GGCCUUUUACUGUUCUGUGTT against Zfp273 the z-score was inactive: -0.729.
With “GGAACUUUGUUAAAAUGGATT against 4932414N04Rik” the z-score was inactive: -0.979.
In the case of GGAGGGAAGCGAGAGUUUUTT against Emilin2, the z-score is reported as active: 2.25.
With CCUGUUUCGUAGAUUGUUUTT against Eftud2 the z-score was inactive: -0.35.
For GGUGAAGAAAGCACUGUUUTT against Olfr980, the z-score was inactive: 0.0649.
In the case of GGAGGAAGGCUUCCUAAAGTT against Slc25a27, the z-score is reported as inactive: 0.666.
With GGAACAACAUUGUUCUAAATT against Fstl5 the z-score was inactive: 0.759.
In the case of GGCCAUCAUUGAGGAAUAUTT against Eif4g1, the z-score is reported as inactive: -0.81.
In the case of GGACAGCUCUCUUUAGUCUTT against Erf, the z-score is reported as inactive: -1.78.
For GGAUGCUUGUGGACCUGUGTT against Olfr1123, the z-score was inactive: 1.14.
For GGCCUCAAAUACCAUAACATT against Zfp941, the z-score was inactive: 0.000237.
In the case of GGAGGUUAUGUUUAAAACUTT against Dync1h1, the z-score is reported as inactive: -0.649.
With GGGCCUUCAAAACGAGAAGTT against Cyp4f39 the z-score was inactive: 0.339.
With GCUUUGUUUGAAAAUGCGATT against Nrde2 the z-score was inactive: -0.66.
For CGGACGACUCCCUUAUUCATT against Adrm1, the z-score was inactive: -1.29.
In the case of GGACGUGCAGGAAAUGCAUTT against Alas1, the z-score is reported as inactive: -0.049.
With GCAGUUCUGAAUCAUUAAGTT against Pot1a the z-score was inactive: -1.39.
For GCCUAACAUCUGUCCCUAUTT against Tmem106c, the z-score was inactive: 0.0058.
With GGAAUCCUUUUGGAUAACATT against Dock4 the z-score was inactive: -0.54.
In the case of CGUCUGAUCUAGAUGACUCTT against Msantd4, the z-score is reported as inactive: 0.319.
With GCAGAUGAUACGCAUGCAGTT against Ccdc91 the z-score was inactive: -0.65.
With GCUAUGACAGUUAUGCUACTT against Cirbp the z-score was inactive: 0.874.
With CGGGUUUUUCCAGUAGAUUTT against Ebag9 the z-score was inactive: 0.0321.
In the case of GGUUCAGACAAGCAUCUAGTT against Sbp, the z-score is reported as inactive: -1.04.
In the case of GGAGGCAAAAAUGAUGCUATT against Slpi, the z-score is reported as inactive: 1.97.
In the case of GGAACAGAGAGUGGAGCUUTT against Rnd1, the z-score is reported as inactive: 0.787.
For GGCCGUACAUCAACAUUACTT against C1qtnf6, the z-score was inactive: 0.115.
For GCUAGCUAGAACAAGUAAATT against Slmap, the z-score was inactive: -1.72.
For GCAACGUGGUCUAUGAAUUTT against Disp2, the z-score was inactive: -0.694.
For GCUAAUUCUCAGAACUCUATT against Tas2r130, the z-score was inactive: -0.5.
For GGUAAUAGAGGAGAAGAAUTT against Phc1, the z-score was inactive: 0.266.
With GGAAUCAUUGACGUAAUCATT against Chil3 the z-score was inactive: 1.99.
With GGAGUCUUAUGUCUUGGAUTT against Aldh1b1 the z-score was inactive: -0.443.
In the case of GGGAAAAAACCCUGUUCUUTT against Zfp11, the z-score is reported as inactive: 0.703.
In the case of GGAAAAACAUGCCAAAAAATT against Mettl15, the z-score is reported as inactive: -0.222.
With GGGACUCCCAAACAACAAATT against Lair1 the z-score was inactive: 0.185.
With GCUGACAGACUUAUUACUUTT against Cul4b the z-score was inactive: 0.201.
For CGGAACAGACCAUCUCACUTT against Plec, the z-score was inactive: 0.0343.
With AUGAAAGCAUUCUAAGAAGTT against LOC434320 the z-score was inactive: -0.22.
With GGAGAUCAUCAACAUCGCCTT against Nptx2 the z-score was inactive: 0.22.
In the case of “GGGACGAUUACCCUUAUUGTT against 1700084J12Rik”, the z-score is reported as inactive: 0.709.
In the case of GGUGGACAAGGCAAUACAGTT against Mmp20, the z-score is reported as active: 4.46.
For GGAAGUAGAAGUGAGUGAATT against Zcrb1, the z-score was inactive: -0.6.
With GGAGAAUCCUCAUUGACACTT against Lactb2 the z-score was inactive: -1.71.
With GGAGACCUUCAAAAAGGUGTT against Tmprss4 the z-score was inactive: -1.06.
For GGAUCAUUUCUGGCAAGAGTT against Irf7, the z-score was inactive: -0.379.
For GGCGAAAAAUACAAAUUCCTT against Vamp1, the z-score was inactive: 0.927.
In the case of GCGUGCGGAUAACAAAAGCTT against D11Wsu47e, the z-score is reported as inactive: 0.342.
In the case of GGGUGAGAUAAUUGAAAAGTT against Slc12a6, the z-score is reported as inactive: 0.607.
With CCGCGUCUUGCUAUGGAAGTT against Baiap2l2 the z-score was inactive: 0.79.
With GGAUUGAGCUACAAGAAUATT against Cgas the z-score was inactive: -0.103.
